Results from article PMC4860965, “A novel role for the tumour suppressor Nitrilase1 modulating the Wnt/β-catenin signalling pathway” (Cell Discovery, 2016).
These are yes or no findings as the source states them, for the method shown. For some of these results: Binding seen in cells or lysates may run through a third protein. Some results given as binding are weak or reduced against the parent protein; the word gives no strength. For some of these results: Tags and fused reporters may be left off the sequences shown. One block for each molecule: values may come before it.

Amino acid sequences for entries named in this document (tags omitted).
UniProt Q9UJU2: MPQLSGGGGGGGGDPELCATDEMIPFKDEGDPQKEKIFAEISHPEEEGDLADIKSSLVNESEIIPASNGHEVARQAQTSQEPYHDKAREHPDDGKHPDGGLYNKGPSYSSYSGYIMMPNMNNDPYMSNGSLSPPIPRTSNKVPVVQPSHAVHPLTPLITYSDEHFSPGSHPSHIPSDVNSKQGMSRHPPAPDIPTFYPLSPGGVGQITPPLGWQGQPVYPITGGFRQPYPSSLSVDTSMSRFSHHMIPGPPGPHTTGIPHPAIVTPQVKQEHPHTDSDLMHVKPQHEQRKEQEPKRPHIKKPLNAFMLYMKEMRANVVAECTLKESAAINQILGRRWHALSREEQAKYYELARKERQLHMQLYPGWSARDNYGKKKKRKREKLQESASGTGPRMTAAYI
UniProt P35222: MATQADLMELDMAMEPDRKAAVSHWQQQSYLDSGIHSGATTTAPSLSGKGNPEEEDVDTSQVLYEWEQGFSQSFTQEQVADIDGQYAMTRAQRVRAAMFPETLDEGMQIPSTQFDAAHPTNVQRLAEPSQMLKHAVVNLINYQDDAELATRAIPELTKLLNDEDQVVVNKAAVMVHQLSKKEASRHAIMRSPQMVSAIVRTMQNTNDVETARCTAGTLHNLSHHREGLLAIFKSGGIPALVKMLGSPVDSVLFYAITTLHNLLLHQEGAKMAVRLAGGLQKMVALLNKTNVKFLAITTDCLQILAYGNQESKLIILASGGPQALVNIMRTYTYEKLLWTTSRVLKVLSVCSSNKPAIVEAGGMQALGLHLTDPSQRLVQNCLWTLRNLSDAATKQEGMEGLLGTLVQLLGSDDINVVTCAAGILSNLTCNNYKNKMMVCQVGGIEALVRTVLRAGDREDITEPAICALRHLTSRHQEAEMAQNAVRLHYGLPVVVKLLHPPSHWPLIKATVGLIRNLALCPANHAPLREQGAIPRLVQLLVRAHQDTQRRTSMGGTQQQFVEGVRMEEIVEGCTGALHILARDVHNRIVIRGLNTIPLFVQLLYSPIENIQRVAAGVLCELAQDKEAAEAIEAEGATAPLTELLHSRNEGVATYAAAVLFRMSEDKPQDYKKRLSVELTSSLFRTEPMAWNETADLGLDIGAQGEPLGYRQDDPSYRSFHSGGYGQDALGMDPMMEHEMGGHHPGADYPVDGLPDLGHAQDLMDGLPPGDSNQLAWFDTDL

How the values were obtained:
GST-LEF-1 = GST-LEF-1 (UniProt Q9UJU2); test: pull-down; GST-LEF-1/β-catenin-His6 complex preformed and isolated on glutathione-agarose beads, washed, incubated with increasing amounts of MBP-hNit1, washed again; beads and supernatant blotted; both purified
[1] = biological target: T1, endogenous hNit1 (human nitrilase1) (human (endogenous in HeLa, HEK-293, HCT116, MCF-7)) (UniProt Q86X76); test: co-IP; endogenous proteins, polyclonal anti-Nit1 antibody, HEK-293, HeLa, HCT116 and MCF-7 cells; data not shown
T1 sequence: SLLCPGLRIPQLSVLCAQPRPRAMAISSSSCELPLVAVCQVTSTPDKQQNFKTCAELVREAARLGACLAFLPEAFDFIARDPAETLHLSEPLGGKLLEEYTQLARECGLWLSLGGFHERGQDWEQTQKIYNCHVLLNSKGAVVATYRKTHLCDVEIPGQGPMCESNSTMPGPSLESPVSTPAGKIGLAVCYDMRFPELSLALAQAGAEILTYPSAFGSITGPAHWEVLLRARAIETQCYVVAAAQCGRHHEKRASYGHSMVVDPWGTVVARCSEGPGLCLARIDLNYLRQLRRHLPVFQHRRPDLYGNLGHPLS

[2] = biological target: T1, endogenous hNit1 (human nitrilase1) (human (endogenous in HeLa, HEK-293, HCT116, MCF-7)); test: co-IP; endogenous proteins, HeLa and HEK-293 lysates (500 μg protein), monoclonal anti-nitrilase1 (1C3), 2 h at 4 °C, Protein A Sepharose; western blot
[3] = biological target: T1, endogenous hNit1 (human nitrilase1) (human (endogenous in HeLa, HEK-293, HCT116, MCF-7)); test: proximity ligation; Duolink PLA in MCF-7 cells with monoclonal anti-Nit1 (1C3) and polyclonal anti-β-catenin (M14M); shNit1 knockdown reduced the signals
[4] = biological target: T2, Armadillo-3xFLAG (Drosophila) (UniProt P18824); test: co-IP; HEK-293 cells transiently transfected, lysed after 48 h (20 mM imidazole pH 8.0, 150 mM NaCl, 2 mM MgCl2, 300 mM sucrose, 0.25% Triton X-100); immunoprecipitation with anti-FLAG M2 pre-bound to Protein A Sepharose; western blot
T2 sequence: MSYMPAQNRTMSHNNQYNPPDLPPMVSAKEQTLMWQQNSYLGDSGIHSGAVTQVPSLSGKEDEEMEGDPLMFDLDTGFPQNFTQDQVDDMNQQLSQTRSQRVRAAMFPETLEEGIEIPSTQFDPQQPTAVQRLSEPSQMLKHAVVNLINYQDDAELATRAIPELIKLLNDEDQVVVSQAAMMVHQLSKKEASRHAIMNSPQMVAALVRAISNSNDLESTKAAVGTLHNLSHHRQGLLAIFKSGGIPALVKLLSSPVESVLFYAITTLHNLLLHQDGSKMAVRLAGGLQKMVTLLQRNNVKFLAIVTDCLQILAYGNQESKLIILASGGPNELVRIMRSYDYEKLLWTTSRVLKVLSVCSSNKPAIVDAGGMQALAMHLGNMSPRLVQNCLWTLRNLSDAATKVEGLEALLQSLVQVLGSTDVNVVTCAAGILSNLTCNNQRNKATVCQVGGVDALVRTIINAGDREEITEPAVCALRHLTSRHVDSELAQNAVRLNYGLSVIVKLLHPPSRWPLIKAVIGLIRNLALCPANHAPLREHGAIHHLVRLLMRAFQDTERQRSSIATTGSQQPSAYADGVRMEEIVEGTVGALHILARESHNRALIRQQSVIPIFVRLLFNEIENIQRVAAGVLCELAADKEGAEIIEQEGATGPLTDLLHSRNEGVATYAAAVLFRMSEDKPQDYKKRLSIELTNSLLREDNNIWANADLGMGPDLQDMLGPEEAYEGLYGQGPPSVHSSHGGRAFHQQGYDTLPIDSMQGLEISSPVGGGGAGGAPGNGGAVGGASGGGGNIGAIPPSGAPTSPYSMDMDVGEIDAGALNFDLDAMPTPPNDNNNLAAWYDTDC

β-catenin-FLAG = β-catenin-FLAG (UniProt P35222); test: as above
[5] = biological target: T3, GST-Armadillo (Drosophila) (UniProt P18824); test: pull-down; 4 μg GST or GST fusion protein with 5 μg MBP fusion protein, 150 mM NaCl, 20 mM imidazole or HEPES pH 8.0, 2 mM MgCl2, 300 mM sucrose, 0.25% Triton X-100, 20 min at 4 °C; glutathione-agarose beads; western blot with anti-MBP; both purified
T3 sequence: T2 sequence

binding (GST-LEF-1): binds
Molecule: β-catenin-His6 (from UniProt P35222 1-781)

binding [1]: binds
binding [2]: binds
binding [3]: binds
Molecule: endogenous β-catenin (from UniProt P35222 1-781)

binding [4]: binds
binding (β-catenin-FLAG): binds
B1: dNitFhit-myc6 (Drosophila NitFhit fusion protein, myc6-tagged) (protein, UniProt O76464 1-460)
chain: MSTLVNTTRRSIVIAIHQQLRRMSVQKRKDQSATIAVGQMRSTSDKAANLSQVIELVDRAKSQNACMLFLPECCDFVGESRTQTIELSEGLDGELMAQYRELAKCNKIWISLGGVHERNDQKIFNAHVLLNEKGELAAVYRKLHMFDVTTKEVRLRESDTVTPGYCLERPVSTPVGQIGLQICYDLRFAEPAVLLRKLGANLLTYPSAFTYATGKAHWEILLRARAIETQCFVVAAAQIGWHNQKRQSWGHSMIVSPWGNVLADCSEQELDIGTAEVDLSVLQSLYQTMPCFEHRRNDIYALTAYNLRSKEPTQDRPFATNIVDKRTIFYESEHCFAFTNLRCVVKGHVLVSTKRVTPRLCGLDCAEMADMFTTVCLVQRLLEKIYQTTSATVTVQDGAQAGQTVPHVHFHIMPRRLGDFGHNDQIYVKLDERAEEKPPRTIEERIEEAQIYRKFLTDIS

binding [5]: binds
B2: MBP-dNitFhit (natural protein, D. melanogaster, UniProt O76464 1-460, looked up)
chain: B1 chain
notes: Drosophila melanogaster NitFhit, amplified from the intronless genomic DNA; source: E. coli XL1 blue or BL21-RE4, purified (amylose resin)
